Data as given in PubChem BioAssay AID686943 (Drosophila RNAi Screening Center, 2013).
In all, the deposit lists about 23,000 reagents; below is an unselected part of those with a known target gene and a result. 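Extra replicates exist only for a retested subset of genes; insulin dose and duration not given; both raised and lowered dpERK matter.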 Reagents against one gene are numbered here. Not all columns of the deposit are shown. Reagent sequences are not shown. Not stated in the record: the amount of reagent, the time to read-out.

- Purpose: 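Fly genes whose loss alters ERK activation after insulin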 (primary screen)
- System: Drosophila S2R+ haemocyte-like cells expressing YFP-tagged ERK (Rolled)
- Knock-down reagent: long dsRNA against Drosophila genes
- Conditions: insulin stimulation versus unstimulated cells; dose and duration not given
- Detection: 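Per-plate z-scores of phospho-ERK immunostaining normalised to YFP-tagged ERK, measured with and without insulin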
- Scale: replicate 1, z-score of dpERK with insulin and replicate 2, z-score of dpERK with insulin: higher = more active ERK per ERK-YFP after insulin; replicate 1, z-score of dpERK under basal conditions: higher = more basal active ERK per ERK-YFP

The first 2 records, ahead of the listing:
predicted target | dsRNA no. | replicate 1, z-score of dpERK with insulin | replicate 2, z-score of dpERK with insulin | replicate 1, z-score of dpERK under basal conditions
sbb | 1 | 0.57 | 0.32 | 0.67
sbb | 2 | -0.26 | 0.25 | 1.42

Results, from the first entry:
predicted target | dsRNA no. | replicate 1, z-score of dpERK with insulin | replicate 2, z-score of dpERK with insulin | replicate 1, z-score of dpERK under basal conditions
sbb | 1 | 0.57 | 0.32 | 0.67
sbb | 2 | -0.26 | 0.25 | 1.42
Ehbp1 | 1 | -0.53 | -0.03 | 0.38
CG13332 | 1 | 0.14 | -0.27 | 0.71
CG3036 | 1 | 0.52 | 0.65 | 0.6
CG3036 | 2 | 0.25 | -0.45 | 0.3
CG1648 | 1 | 0.14 | 0.36 | 0.68
D12 | 1 | -0.27 | 1.23 | -0.43
CG13135 | 1 | 0.41 | 0.65 | -0.49
alpha-Est9 | 1 | -0.3 | 0.53 | -0.16
CG13615 | 1 | -0.59 | 0 | -0.34
CG14839 | 1 | 1.08 | -0.53 | -0.94
RpS11 | 1 | -0.24 | -0.74 | -2.34
RpS11 | 2 | 0.17 | -0.28 | 3.21
Nadk1b | 1 | 0.1 | 0.27 | -0.06
Nadk1b | 2 | 0.06 | 0.49 | 1.58
Nadk1b | 3 | 0.77 | 0.29 | -0.51
Cyp4ae1 | 1 | 0.05 | 0.37 | -0.62
Mkk4 | 1 | 0.35 | 0.58 | -0.08
GXIVsPLA2 | 1 | 0.77 | 0.69 | -0.04
ttk | 1 | -0.04 | 0.03 | -0.9
ttk | 2 | -3.82 | -1.57 | -2.06
sphe | 1 | 0.31 | 0.15 | 1.43
Nox | 1 | 1.34 | 0.64 | -0.24
Nox | 2 | -0.64 | -0.73 | 0.64
Argp | 1 | 0.23 | 0.16 | 0.61
mura | 1 | -0.04 | 1.18 | 0.82
mura | 2 | -5.36 | -3.36 | -3.42
phtm | 1 | 3.37 | 1.65 | 0.79
Pgant3 | 1 | -0.22 | -0.24 | -0.75
Rnmt | 1 | 0.57 | 0.74 | -0.61
CG42534 | 1 | -3.25 | -0.33 | 1.85
CG42534 | 2 | -0.62 | -2.61 | -1.89
CG42534 | 3 | 0.71 | 0.32 | 0.79
CG13559 | 1 | -0.1 | -0.13 | -0.39
CG1943 | 1 | 1 | -0.82 | 0.81
CG13481 | 1 | -0.12 | 0.3 | 0.56
Clk | 1 | -0.75 | 0.17 | 1.96
Pde8 | 1 | -0.4 | 0.25 | -0.89
